PubChem BioAssay AID1224826, NIAID, 2016

Assay: 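Knock-downs that raise or lower Tnf reporter signal after endotoxin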 (primary screen)
Cells: RAW264.7 G9 macrophages from mouse bearing reporters for p65 (GFP) and the Tnf promoter (mCherry)
Reagents: siRNA pool against mouse genes, 100 nM
Duration: 16 h of LPS stimulation, after 2 days of siRNA transfection
Conditions: bacterial lipopolysaccharide (Salmonella minnesota R595), 10 ng/ml
Measurement: 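Nuclear mCherry signal of the Tnf promoter reporter measured by imaging after background removal, scaled to each plate median and turned into robust z-scores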
Direction: Tnf reporter robust z-score: higher = stronger Tnf promoter reporter signal after LPS; Tnf reporter intensity: higher = stronger Tnf promoter reporter signal
Rule for the call: 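Called active when robust z-score is at most -1.3, matching the median of the Tlr4 knock-down control, or over 3; control wells and wells with under 50 cells never active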
Meaning of the calls: active = Tnf reporter clearly lowered or raised; inactive = no clear change in Tnf reporter
Here is a random part of about 17,000 deposited reagents. About 1,110 of them (6.6%) were called active. 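Active means lowered or raised reporter signal; replicate intensities are raw and not normalised per plate.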 Entries without a mark were called inactive.

gene | PubChem SID | Tnf reporter robust z-score | fewer than 50 cells in well | Tnf reporter intensity, replicate 1 | Tnf reporter intensity, replicate 2
Tmem270 | SID315475353 | – | fewer than 50 cells per well; well left out of calls | 247 | 133
Drd1 | SID315466378 | -0.26 | enough cells in well | 180 | 299
Tlcd1 | SID315473520 | -0.08 | enough cells in well | 305 | 61
Mcpt8 | SID315467874 | 1.44 | enough cells in well | 295 | 207
Pip5k1a | SID315468522 | – | fewer than 50 cells per well; well left out of calls | 129 | 151
Nabp2 | SID315473934 | -0.14 | enough cells in well | 263 | 59.4
Mff | SID315475190 | – | fewer than 50 cells per well; well left out of calls | 112 | 65.3
Or51t4 | SID315480045 | – | fewer than 50 cells per well; well left out of calls | 57.6 | 48.7
Pcgf6 | SID315474177 | 0.72 | enough cells in well | 175 | 142
Cyp11a1 | SID315466212 | -0.03 | enough cells in well | 238 | 195
Heatr1 | SID315478168 | 1.62 | enough cells in well | 273 | 374
Emx2 | SID315466498 | 0.19 | enough cells in well | 229 | 261
Plag1 | SID315471649 | -0.18 | enough cells in well | 221 | 189
Trarg1 | SID315479368 | -0.14 | enough cells in well | 124 | 128
Mfap4 | SID315475279 | 1.3 | enough cells in well | 287 | 199
Vmn2r-ps105 | SID315481831 | -1.37 (active) | enough cells in well | 82.1 | 84.2
Rlbp1 | SID315468981 | -1.48 (active) | enough cells in well | 138 | 94.2
Cpeb1 | SID315466093 | 2.38 | enough cells in well | 343 | 307
Cul1 | SID315470505 | 0.17 | enough cells in well | 249 | 215
Aqr | SID315465486 | – | fewer than 50 cells per well; well left out of calls | 179 | 182
Ms4a3 | SID315477248 | 1.39 | enough cells in well | 255 | 199
Hspa9 | SID315467330 | -0.96 | enough cells in well | 177 | 113
Sik1 | SID315467992 | 1.94 | enough cells in well | 342 | 249
Wdr4 | SID315471818 | -0.56 | enough cells in well | 218 | 180
Defb40 | SID315481731 | -0.74 | enough cells in well | 197 | 76.4
Emb | SID315466490 | 0.72 | enough cells in well | 232 | 114
Micu1 | SID315477964 | 0.51 | enough cells in well | 160 | 252
Coro2b | SID315479253 | -0.26 | enough cells in well | 190 | 210

Next part, starting with the last 6 of the part before.
gene | PubChem SID | Tnf reporter robust z-score | fewer than 50 cells in well | Tnf reporter intensity, replicate 1 | Tnf reporter intensity, replicate 2
Sik1 | SID315467992 | 1.94 | enough cells in well | 342 | 249
Wdr4 | SID315471818 | -0.56 | enough cells in well | 218 | 180
Defb40 | SID315481731 | -0.74 | enough cells in well | 197 | 76.4
Emb | SID315466490 | 0.72 | enough cells in well | 232 | 114
Micu1 | SID315477964 | 0.51 | enough cells in well | 160 | 252
Coro2b | SID315479253 | -0.26 | enough cells in well | 190 | 210
Kcnn4 | SID315467598 | -0.4 | enough cells in well | 157 | 121
Ptk6 | SID315469249 | -0.32 | enough cells in well | 168 | 150
Parn | SID315474848 | 1.71 | enough cells in well | 232 | 169
Ddx21 | SID315471396 | 1.27 | enough cells in well | 285 | 217
Cnih3 | SID315474658 | – | fewer than 50 cells per well; well left out of calls | 160 | 24.4
Slc2a9 | SID315477096 | – | fewer than 50 cells per well; well left out of calls | 19.7 | 57.7
Csf2rb | SID315466160 | -0.01 | enough cells in well | 220 | 216
Or51b4 | SID315468329 | 2.69 | enough cells in well | 210 | 196
Pklr | SID315468554 | 1.47 | enough cells in well | 284 | 105
Rnf20 | SID315476824 | -0.11 | enough cells in well | 151 | 95.3
Tex19.2 | SID315474166 | 1.78 | enough cells in well | 327 | 62
Hadh | SID315467137 | – | fewer than 50 cells per well; well left out of calls | 170 | 105
Fam20a | SID315477544 | -0.13 | enough cells in well | 170 | 230
Tomm22 | SID315478281 | 2.16 | enough cells in well | 183 | 179
Slit2 | SID315469323 | 0.6 | enough cells in well | 280 | 162
Zfp811 | SID315479478 | -1.11 | enough cells in well | 117 | 93.4
Or4d2 | SID315480092 | – | fewer than 50 cells per well; well left out of calls | 134 | 86.5
Haus1 | SID315478435 | 0.29 | enough cells in well | 306 | 195
Tceal8 | SID315472583 | – | fewer than 50 cells per well; well left out of calls | 219 | 61.7
Or10p1 | SID315480554 | – | fewer than 50 cells per well; well left out of calls | 48.5 | 47
Foxa1 | SID315467237 | 0.43 | enough cells in well | 316 | 250
Kcna2 | SID315467559 | -0.15 | enough cells in well | 232 | 139
Tmbim4 | SID315473456 | -0.14 | enough cells in well | 319 | 54
Crebl2 | SID315478989 | -1.14 | enough cells in well | 69.4 | 127
Or4c101 | SID315480543 | -0.07 | enough cells in well | 183 | 147
Abcc2 | SID315466023 | 0.08 | enough cells in well | 142 | 184
Fgr | SID315466682 | -0.3 | enough cells in well | 188 | 132
Ep300 | SID315481489 | -1.29 | enough cells in well | 113 | 148
Or13p10 | SID315468326 | -0.97 | enough cells in well | 57.2 | 90.7
Galnt1 | SID315466818 | -0.44 | enough cells in well | 202 | 105
Cyp2c39 | SID315466232 | 2.36 | enough cells in well | 361 | 285
Gsto2 | SID315473457 | 0.61 | enough cells in well | 189 | 102
Kdg4 | SID315472233 | 0.93 | enough cells in well | 320 | 126
Dctn5 | SID315471998 | -1.25 | enough cells in well | 98.9 | 84
Racgap1 | SID315470490 | – | fewer than 50 cells per well; well left out of calls | 79.7 | 50.9
Dppa3 | SID315474767 | – | fewer than 50 cells per well; well left out of calls | 234 | 12.9
Rnf11 | SID315470721 | – | fewer than 50 cells per well; well left out of calls | 78.2 | 43.4
Lactb2 | SID315477739 | 2.61 | enough cells in well | 374 | 238
Rem1 | SID315468943 | 0.41 | enough cells in well | 328 | 249
Rxfp2 | SID315477126 | 0 | enough cells in well | 225 | 278
Rps6ka4 | SID315471614 | – | fewer than 50 cells per well; well left out of calls | 64.3 | 102
Rnf40 | SID315479123 | – | fewer than 50 cells per well; well left out of calls | 134 | 49
Immp2l | SID315475967 | 1.6 | enough cells in well | 308 | 194
Oprl1 | SID315468340 | -0.43 | enough cells in well | 281 | 61.6
Anks1b | SID315475473 | 0.1 | enough cells in well | 132 | 143
Asl | SID315476854 | 1.13 | enough cells in well | 104 | 243
A630038E17Rik | SID315478232 | 0.49 | enough cells in well | 189 | 190
